These results are taken from publication PMC8551263, “Optineurin modulates the maturation of dendritic cells to regulate autoimmunity through JAK2-STAT3 signaling” (Nature Communications, 2021).

By UniProt entry, the sequences of proteins in these tests, tags left out. Residues count along the entry.
UniProt Q62120: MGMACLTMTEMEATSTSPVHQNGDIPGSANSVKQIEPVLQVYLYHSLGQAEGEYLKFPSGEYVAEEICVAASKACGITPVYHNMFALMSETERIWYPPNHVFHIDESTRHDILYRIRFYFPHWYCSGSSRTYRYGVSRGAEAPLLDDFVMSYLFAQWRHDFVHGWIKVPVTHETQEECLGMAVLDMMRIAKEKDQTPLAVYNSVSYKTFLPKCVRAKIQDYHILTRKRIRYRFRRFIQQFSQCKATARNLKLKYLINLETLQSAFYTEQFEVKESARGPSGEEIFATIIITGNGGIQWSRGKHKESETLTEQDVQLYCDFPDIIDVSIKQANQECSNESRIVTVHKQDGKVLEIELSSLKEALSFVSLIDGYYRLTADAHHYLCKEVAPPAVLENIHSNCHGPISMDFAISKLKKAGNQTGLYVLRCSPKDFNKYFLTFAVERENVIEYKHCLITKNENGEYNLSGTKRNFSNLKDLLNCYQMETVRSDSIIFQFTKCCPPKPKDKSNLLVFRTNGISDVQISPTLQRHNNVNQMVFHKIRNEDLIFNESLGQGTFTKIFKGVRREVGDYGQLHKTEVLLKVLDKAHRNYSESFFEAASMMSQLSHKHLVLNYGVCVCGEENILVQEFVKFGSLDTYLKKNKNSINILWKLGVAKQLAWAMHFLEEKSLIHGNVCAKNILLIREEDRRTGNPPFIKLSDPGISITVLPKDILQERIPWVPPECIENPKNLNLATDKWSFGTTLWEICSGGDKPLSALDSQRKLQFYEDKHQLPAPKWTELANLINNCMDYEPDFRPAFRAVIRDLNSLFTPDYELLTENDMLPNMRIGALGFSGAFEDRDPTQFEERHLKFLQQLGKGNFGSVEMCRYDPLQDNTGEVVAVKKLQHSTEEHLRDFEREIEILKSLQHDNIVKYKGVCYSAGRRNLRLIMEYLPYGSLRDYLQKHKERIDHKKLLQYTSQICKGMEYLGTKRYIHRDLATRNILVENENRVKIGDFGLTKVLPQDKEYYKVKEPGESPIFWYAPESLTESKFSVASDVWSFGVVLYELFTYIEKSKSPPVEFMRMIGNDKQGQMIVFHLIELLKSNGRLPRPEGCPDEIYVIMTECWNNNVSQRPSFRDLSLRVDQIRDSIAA
UniProt Q8K3K8: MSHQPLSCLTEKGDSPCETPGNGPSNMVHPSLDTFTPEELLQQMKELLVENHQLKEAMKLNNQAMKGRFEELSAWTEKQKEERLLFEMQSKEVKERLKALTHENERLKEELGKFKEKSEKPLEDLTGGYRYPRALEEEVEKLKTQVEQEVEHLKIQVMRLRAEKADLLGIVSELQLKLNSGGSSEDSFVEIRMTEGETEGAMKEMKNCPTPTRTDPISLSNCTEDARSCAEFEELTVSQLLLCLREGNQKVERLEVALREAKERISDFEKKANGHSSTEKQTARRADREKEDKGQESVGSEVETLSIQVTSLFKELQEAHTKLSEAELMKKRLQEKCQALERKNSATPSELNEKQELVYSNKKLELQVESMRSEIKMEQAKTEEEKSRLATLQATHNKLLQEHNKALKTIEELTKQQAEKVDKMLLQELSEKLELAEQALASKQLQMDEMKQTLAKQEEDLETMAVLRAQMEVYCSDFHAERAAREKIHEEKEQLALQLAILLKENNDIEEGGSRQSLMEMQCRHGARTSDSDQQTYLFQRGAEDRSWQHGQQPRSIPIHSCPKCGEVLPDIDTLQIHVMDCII
UniProt P42227: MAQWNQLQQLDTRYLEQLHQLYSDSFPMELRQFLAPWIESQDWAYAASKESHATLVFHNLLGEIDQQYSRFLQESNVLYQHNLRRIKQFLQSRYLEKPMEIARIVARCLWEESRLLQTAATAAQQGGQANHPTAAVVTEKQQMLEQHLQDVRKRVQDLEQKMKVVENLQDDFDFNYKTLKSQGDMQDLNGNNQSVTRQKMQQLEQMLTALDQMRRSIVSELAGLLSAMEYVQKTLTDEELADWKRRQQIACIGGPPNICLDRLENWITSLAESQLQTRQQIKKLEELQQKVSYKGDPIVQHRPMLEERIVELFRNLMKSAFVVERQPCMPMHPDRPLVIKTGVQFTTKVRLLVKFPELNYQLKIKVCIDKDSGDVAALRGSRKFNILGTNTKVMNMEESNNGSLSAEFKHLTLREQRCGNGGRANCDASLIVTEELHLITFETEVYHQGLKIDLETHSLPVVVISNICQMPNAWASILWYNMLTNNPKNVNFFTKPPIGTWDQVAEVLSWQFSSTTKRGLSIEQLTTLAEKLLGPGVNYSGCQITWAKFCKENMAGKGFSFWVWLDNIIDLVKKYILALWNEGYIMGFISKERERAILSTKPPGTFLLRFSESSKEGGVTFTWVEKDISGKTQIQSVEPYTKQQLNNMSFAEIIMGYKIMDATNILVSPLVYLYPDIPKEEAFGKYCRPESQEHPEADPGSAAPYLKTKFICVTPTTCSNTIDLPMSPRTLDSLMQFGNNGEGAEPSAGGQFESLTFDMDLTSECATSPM
UniProt Q96CV9: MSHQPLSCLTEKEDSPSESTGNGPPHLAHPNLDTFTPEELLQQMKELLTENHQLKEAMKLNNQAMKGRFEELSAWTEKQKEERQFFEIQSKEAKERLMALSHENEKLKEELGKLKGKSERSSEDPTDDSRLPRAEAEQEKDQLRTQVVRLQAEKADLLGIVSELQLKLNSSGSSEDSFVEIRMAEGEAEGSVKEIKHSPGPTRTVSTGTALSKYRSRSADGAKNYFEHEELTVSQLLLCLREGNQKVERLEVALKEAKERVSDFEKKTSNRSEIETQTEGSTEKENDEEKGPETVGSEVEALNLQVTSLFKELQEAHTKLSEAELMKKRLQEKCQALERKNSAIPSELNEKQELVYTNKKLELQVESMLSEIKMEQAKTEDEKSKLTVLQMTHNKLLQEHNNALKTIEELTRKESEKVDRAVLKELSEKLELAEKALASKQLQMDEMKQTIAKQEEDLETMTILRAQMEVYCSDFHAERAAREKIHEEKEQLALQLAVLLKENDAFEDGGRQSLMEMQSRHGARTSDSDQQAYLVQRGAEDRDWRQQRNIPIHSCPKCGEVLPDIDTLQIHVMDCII
UniProt Q9QUK6, residues 26-835: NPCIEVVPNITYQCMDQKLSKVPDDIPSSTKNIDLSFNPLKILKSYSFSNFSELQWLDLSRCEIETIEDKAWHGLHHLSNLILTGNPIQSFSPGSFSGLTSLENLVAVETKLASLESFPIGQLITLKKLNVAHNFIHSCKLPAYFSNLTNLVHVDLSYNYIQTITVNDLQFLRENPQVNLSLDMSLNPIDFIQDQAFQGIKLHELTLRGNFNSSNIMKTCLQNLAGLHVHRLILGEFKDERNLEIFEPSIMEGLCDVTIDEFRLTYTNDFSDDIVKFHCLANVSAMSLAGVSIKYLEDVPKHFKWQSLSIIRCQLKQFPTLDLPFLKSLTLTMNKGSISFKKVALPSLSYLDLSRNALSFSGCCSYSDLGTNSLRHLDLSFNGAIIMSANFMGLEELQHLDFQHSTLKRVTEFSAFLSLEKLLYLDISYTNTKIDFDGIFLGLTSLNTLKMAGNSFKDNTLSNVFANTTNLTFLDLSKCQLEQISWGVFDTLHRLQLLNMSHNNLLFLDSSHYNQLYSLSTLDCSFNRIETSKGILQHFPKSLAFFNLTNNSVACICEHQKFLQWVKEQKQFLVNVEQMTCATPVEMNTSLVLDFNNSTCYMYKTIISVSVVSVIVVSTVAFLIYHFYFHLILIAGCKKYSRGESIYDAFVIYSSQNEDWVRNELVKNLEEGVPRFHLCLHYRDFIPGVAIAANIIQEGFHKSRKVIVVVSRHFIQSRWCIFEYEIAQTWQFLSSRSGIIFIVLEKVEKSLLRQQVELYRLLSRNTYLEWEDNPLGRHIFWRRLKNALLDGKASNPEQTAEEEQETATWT

No constants are given. Whether binding was seen depends on the method and setting. In cells and extracts the contact can be indirect. Some entries that bind do so weakly or less than the wild type.

In test [1] the target is endogenous JAK2 of mouse BMDCs (mouse (endogenous in BMDCs)) (UniProt Q62120). In words: co-IP; BMDCs transfected with HA-OPTN or empty vector; interaction of endogenous STAT3 and JAK2 analysed by IP.
The target of test [2] is endogenous OPTN of mouse primary BMDCs (mouse (endogenous in BMDCs)) (UniProt Q8K3K8). Briefly: co-IP; endogenous proteins in mouse primary BMDC whole-cell lysate; IP with anti-OPTN (control IgG), Protein A/G beads, blot for JAK2.
Test [3] addresses endogenous JAK2 of mouse BMDCs (mouse (endogenous in BMDCs)) (UniProt Q62120). Briefly: cross-linking; BMDCs transfected with HA-OPTN or empty vector; whole-cell lysates incubated with disuccinimidyl suberate (DSS); JAK2 blot, dimer and monomer bands.
For test [4] the target is unchanged. Briefly: co-IP; endogenous proteins in BMDCs after LPS treatment; IP with anti-JAK2 or anti-STAT3, normal rabbit IgG as control; blot with anti-TLR4, anti-JAK2, anti-STAT3.
Test [5] has as its target endogenous STAT3 of mouse BMDCs (mouse (endogenous in BMDCs)) (UniProt P42227). The test is described as above.

As for “HA-tagged OPTN, expressed in mouse BMDCs (from UniProt Q96CV9 1-577)”, the binding entry in test [1] is given as “binds”. Take “endogenous JAK2 of mouse BMDCs (from UniProt Q62120 1-1132)”: the binding entry in test [2] and in test [3] was “binds” in each case. “endogenous TLR4 of mouse BMDCs (from UniProt Q9QUK6 26-835) (receptor)”: the binding result in test [4] and in test [5] was “no binding” each time.
